From article PMC10448307 come the findings set out here.

Chains of the proteins cited; added tags and fusions are not shown.
UniProt Q03347: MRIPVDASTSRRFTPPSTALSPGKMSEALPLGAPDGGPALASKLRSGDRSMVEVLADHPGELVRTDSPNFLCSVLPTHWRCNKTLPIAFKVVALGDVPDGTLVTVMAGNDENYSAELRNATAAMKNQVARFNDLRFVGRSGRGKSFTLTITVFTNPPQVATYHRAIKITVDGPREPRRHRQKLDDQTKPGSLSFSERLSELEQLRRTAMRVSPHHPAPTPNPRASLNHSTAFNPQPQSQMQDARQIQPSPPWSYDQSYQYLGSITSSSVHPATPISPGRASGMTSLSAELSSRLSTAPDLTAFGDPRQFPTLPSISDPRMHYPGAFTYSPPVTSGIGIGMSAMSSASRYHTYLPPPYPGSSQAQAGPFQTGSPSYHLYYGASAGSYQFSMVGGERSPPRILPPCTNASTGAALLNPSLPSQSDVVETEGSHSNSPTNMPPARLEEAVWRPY

Results are given in words; binding and its absence hold for the method and conditions named. In cells and extracts the contact can be indirect. Some entries that bind do so weakly or less than the wild type.

This test deals with T1, Forkhead box protein P3 (FOXP3) (mouse (endogenous in primary mouse CD4+ T and CD19+ B lymphocytes)) (UniProt Q99JB6).
T1 sequence: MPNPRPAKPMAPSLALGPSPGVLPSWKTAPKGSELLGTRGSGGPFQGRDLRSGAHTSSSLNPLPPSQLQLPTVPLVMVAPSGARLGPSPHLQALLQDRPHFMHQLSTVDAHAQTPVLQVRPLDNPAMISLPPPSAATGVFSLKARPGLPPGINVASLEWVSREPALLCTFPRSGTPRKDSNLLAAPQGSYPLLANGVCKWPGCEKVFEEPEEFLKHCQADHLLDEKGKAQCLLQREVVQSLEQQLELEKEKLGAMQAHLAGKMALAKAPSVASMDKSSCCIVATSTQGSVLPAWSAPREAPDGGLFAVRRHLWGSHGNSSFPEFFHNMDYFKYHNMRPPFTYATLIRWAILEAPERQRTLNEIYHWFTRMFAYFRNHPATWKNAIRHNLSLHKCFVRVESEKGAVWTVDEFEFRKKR
Description: co-IP; lysates (IP buffer, sonicated) of mouse CD4+ T and CD19+ B cells; anti-FOXP3, anti-RUNX1 or IgG antibody with Protein A + G magnetic beads, 4 °C overnight; western blot. Background: Immunoblotting shows a protein as a band on a membrane.

Take “RUNX family transcription factor 1 (RUNX1) (from UniProt Q03347 1-451)”: the binding result was “binds”.
